Measured values: PubChem BioAssay AID1487 (National Center for Advancing Translational Sciences (NCATS), 2009)
Some of the results follow. Shown are side measurements of this screen, not its main read-out; they come without a call. The list favours compounds with an active or inconclusive main result. Potencies come from curve fits of mixed quality, noted in brackets.

Assay: qHTS Assay for Modulators of Lamin A Splicing
Details: HeLa LMNA splicing GFP/RFP minigene ratio, 48 h
Procedure, shortened: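 Read-out is the ratio of GFP to DsRed2 object intensity, acquired by 488 nm laser-scanning cytometry on HeLa lamin A-EGFP minigene reporter cells. Compound incubation 48 hrs at 37 °C in Opti-MEM with 2% FBS; DMSO 0.5% final.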

[1] = measured here: RFP viability control channel
[2] = measured here: GFP splicing reporter channel

SMILES | AC50 [1] | AC50 [2]
c1ccc2c(c1)ncn2CCCCOc1ccc2c(c1)CCC2 | 10 µM [rising, single point] | 
CN(CCO)c1c2c(nc3cc(-c4cccc(F)c4)nn13)CCCC2 | 4.47 µM [rising, full curve] | 3.98 µM [rising, full curve]
COc1ccc(OC)c(NC(=O)c2cc(-c3cc(Cl)ccc3O)n[nH]2)c1 | 35.5 µM [rising, single point] | 12.6 µM [rising, partial curve]
Cc1ccc(C)n1-c1ccc(C(=O)/C=C/N(C)C)cc1 | 3.98 µM [rising, single point] | 1.12 µM [rising, partial curve, poor fit]
CCC12CN3CCN(CC(C3)/C1=N\NC(=O)c1ccc(C(C)(C)C)cc1)C2 | 3.16 µM [rising, full curve, poor fit] | 
Brc1cc(Br)c2ncnc(N3CCCCC3)c2c1 | 35.5 µM [rising, single point] | 
CCOC(=O)CCn1cc(F)c(=O)[nH]c1=O | 0.0141 µM [falling, full curve, poor fit] | 
C/C(=N\NC(=O)C(c1ccccc1)c1ccccc1)c1ccccn1 | 6.31 µM [rising, full curve] | 5.01 µM [rising, full curve]
Cc1cccc(-c2nsc(SCC(=O)NCc3ccc4c(c3)OCO4)n2)c1 | 20 µM [rising, single point] | 35.5 µM [rising, single point]
CC1CCN(c2nc3ccc(C(=O)N4CCN(Cc5ccccc5)CC4)cc3s2)CC1 | 12.6 µM [rising, single point] | 
COc1ccc(N2CCN(C(=O)CCCCCn3c(=O)[nH]c4ccsc4c3=O)CC2)cc1 | 15.8 µM [falling, single point] | 
COCCn1c(SCc2nc3ccccc3s2)nc2ccccc21 | 11.2 µM [rising, single point] | 
COc1ccc(NC(=O)CSc2nc3c(c(=O)n2-c2ccc(C)cc2)SCC3)c(OC)c1 | 22.4 µM [rising, single point] | 31.6 µM [rising, single point]
Cc1noc(C)c1-c1nccc(Nc2ccc(F)cc2)n1 |  | 5.01 µM [falling, partial curve, poor fit]
O=S(=O)(NCCOC12CC3CC(CC(C3)C1)C2)c1cccc2nsnc12 | 12.6 µM [rising, single point] | 
COc1ccc(N2C(N)=C(C#N)C(c3ccsc3)C3=C2CCCC3=O)c(OC)c1 (centres undefined) | 7.08 µM [rising, partial curve] | 
O=C1C=C(NCc2ccco2)CC(c2ccc(Cl)cc2)C1 (centres undefined) | 20 µM [rising, single point] | 12.6 µM [rising, single point]
CCCCS(=O)(=O)N1CCc2nc(-c3ccc(OC)cc3C)c3c(c2C1)CO[C@@H](c1ccccc1)C3 | 5.62 µM [falling, single point] | 
Cc1onc(-c2ccccc2)c1C(=O)N/N=C/c1cc(Br)c(Br)o1 | 35.5 µM [rising, single point] | 
C=CCNC(=O)C1=NOC(CNC(=O)c2c(-c3ccccc3Cl)noc2C)C1 (centres undefined) | 11.2 µM [rising, single point] | 
COc1ccc(OC)c(Nc2cc(C)nc3nc(C)nn23)c1 | 17.8 µM [rising, single point] | 
CC1c2[nH]c3ccccc3c2CCN1C(=O)Nc1ccccc1 (centres undefined) | 35.5 µM [rising, single point] | 
CC(CN(C)C)CN1c2ccccc2CCc2ccccc21 (centres undefined) | 17.8 µM [falling, partial curve] | 12.6 µM [falling, partial curve, poor fit]
Cc1ccnc(NS(=O)(=O)c2ccc(NC(=O)c3ccc(S(=O)(=O)N4CCOCC4)cc3)cc2)n1 | 0.224 µM [falling, full curve, poor fit] | 
Cc1ccc(C(=O)N2CCN(S(=O)(=O)c3ccccc3[N+](=O)[O-])CC2)o1 | 0.0316 µM [falling, full curve, poor fit] | 0.0316 µM [falling, full curve, poor fit]
COCCOc1nc2c(c(=O)n(C)c(=O)n2C)n1CCc1ccccc1 | 35.5 µM [rising, single point] | 
Cc1ccc(C2=NN3C(C2)c2ccccc2OC32C(=O)Nc3ccccc32)cc1 (centres undefined) | 31.6 µM [falling, single point] | 25.1 µM [falling, single point]
COc1ccc(-c2noc(CN3CCN(c4ccccc4)CC3)n2)cc1 | 25.1 µM [rising, single point] | 

SMILES | AC50 [1] | AC50 [2]
COc1cc(/C=N/NC(=O)c2ccc(CSc3nc4ccccc4[nH]3)cc2)ccc1O |  | 35.5 µM [falling, partial curve, poor fit]
O=C(COc1ccc(/C=N/NS(=O)(=O)c2ccccc2)cc1)NCCc1ccccc1 | 14.1 µM [rising, partial curve] | 
Cc1cccc(OCC(=O)Nc2ccc(N3CCN(C(=O)c4ccccc4)CC3)cc2)c1 | 11.2 µM [rising, single point] | 
CCNS(=O)(=O)c1ccc(NC(=O)Nc2ccccc2OC)cc1 | 35.5 µM [falling, single point] | 35.5 µM [falling, single point]
CCCCCCCCN[C@@H](C)[C@H](O)c1ccc(SC(C)C)cc1 | 8.91 µM [falling, single point] | 12.6 µM [falling, partial curve]
CCc1ccccc1NC(=O)Nc1cc(C(=O)NCc2ccc(C)cc2)ccc1N1CCCC1 | 8.91 µM [falling, partial curve, poor fit] | 7.94 µM [falling, partial curve]
S=C(Nc1cccnc1)Nc1ccccc1Br |  | 31.6 µM [rising, single point]
O=C(CNc1ccccc1)Nc1ccc(F)cc1 | 0.0141 µM [rising, full curve, poor fit] | 
O=C(Nc1ccc(NC(=O)c2ccco2)c(Cl)c1)c1ccccc1 | 22.4 µM [falling, partial curve] | 35.5 µM [falling, partial curve, poor fit]
Cn1cc(Cl)c(C(=O)OCC(=O)Nc2nc(-c3ccc(Br)cc3)cs2)n1 | 35.5 µM [rising, single point] | 
O=C(/C=C/c1ccc(OCCCF)cc1)Nc1ccnc(-c2ccncc2)n1 | 10 µM [falling, partial curve] | 10 µM [falling, partial curve]
COc1ccccc1CC(=O)Nc1cccc2c1CCCC2 | 1.78 µM [rising, partial curve, poor fit] | 
O=C(/C=C/c1ccco1)Nc1cccc(-c2nc3ccccc3[nH]2)c1 |  | 35.5 µM [falling, single point]
COC(=O)c1cc(C(=O)Nc2nnc(C3CC3)s2)cc([N+](=O)[O-])c1 | 0.562 µM [falling, full curve, poor fit] | 
CCOC(=O)c1ccc(N2CCN(c3cc(C)ccc3C)CC2)c(NC(=O)Nc2ccccc2)c1 | 0.398 µM [falling, full curve, poor fit] | 0.126 µM [falling, full curve, poor fit]
Cn1cc(C(=O)c2ccc(Cl)cc2Cl)cc1C(=O)N/N=C(\N)COc1ccc(Cl)cc1Cl | 12.6 µM [rising, single point] | 
Cc1cccc(NS(=O)(=O)c2ccc(NC(=O)CN(c3cc([N+](=O)[O-])ccc3C)S(C)(=O)=O)cc2)c1 | 12.6 µM [rising, partial curve] | 
COc1ccc(CNC(=O)c2ccc3c(c2)nc2n3CCC(C)C2)c(OC)c1 (centres undefined) | 2.82 µM [rising, partial curve] | 1.26 µM [rising, partial curve]
CCc1ccc(NC(=O)C(=O)NCCc2csc(-c3ccc(C(F)(F)F)cc3)n2)cc1 | 0.0891 µM [rising, full curve, poor fit] | 0.141 µM [rising, full curve, poor fit]
CC(C)Oc1cccc(-c2cc(C(=O)N3CCN(c4ncccn4)CC3)c3ccccc3n2)c1 | 17.8 µM [rising, partial curve, poor fit] | 
Cc1cc(-c2ccccc2)nc2cc(C(=O)N(Cc3ccccc3)Cc3ccccc3)nn12 | 35.5 µM [rising, single point] | 
CCOC(=O)c1c(C)nc2sc(C(=O)Nc3ccc(C(C)=O)cc3)c(N)c2c1-c1ccc(OC)cc1 |  | 0.794 µM [falling, partial curve, poor fit]
CSc1nc(-c2ccccc2)nc(C(Cl)Cl)n1 | 3.16 µM [rising, partial curve] | 35.5 µM [falling, single point]
CC/C(=N\NC(=O)COc1ccc(Br)cc1)c1ccc(OC)c(OC)c1 |  | 7.94 µM [falling, partial curve]
Cc1csc(NC(=O)c2ccc(C)c([N+](=O)[O-])c2)n1 | 14.1 µM [rising, partial curve] | 
CCCn1c2ccccc2c2cnn(CC(=O)N3CCC(C)CC3)c(=O)c21 |  | 3.55 µM [rising, single point]
COc1cc(C(=S)N2CCCCC2)ccc1OCC(=O)Nc1ccccc1Cl | 12.6 µM [rising, single point] | 

Structures from the list above that have a thiophene ring, fused or not (three):
SMILES | AC50 [1] | AC50 [2]
COc1ccc(N2CCN(C(=O)CCCCCn3c(=O)[nH]c4ccsc4c3=O)CC2)cc1 | 15.8 µM [falling, single point] | 
COc1ccc(N2C(N)=C(C#N)C(c3ccsc3)C3=C2CCCC3=O)c(OC)c1 (centres undefined) | 7.08 µM [rising, partial curve] | 
CCOC(=O)c1c(C)nc2sc(C(=O)Nc3ccc(C(C)=O)cc3)c(N)c2c1-c1ccc(OC)cc1 |  | 0.794 µM [falling, partial curve, poor fit]
